Measured values reported in publication PMC6814613.

Assays:
[1] = target: T1, Ninjurin 2 (human (endogenous in HT-29, primary human colon cancer cells and human colon cancer tissue)) (UniProt Q9NZG7); experiment: co-IP; endogenous NINJ2 precipitated with anti-NINJ2 antibody plus protein IgA/G beads from 1000 μg lysate of HT-29 cells or primary human colon cancer cells (pri-Can-1); bound RTKs detected by Western blotting
T1 sequence: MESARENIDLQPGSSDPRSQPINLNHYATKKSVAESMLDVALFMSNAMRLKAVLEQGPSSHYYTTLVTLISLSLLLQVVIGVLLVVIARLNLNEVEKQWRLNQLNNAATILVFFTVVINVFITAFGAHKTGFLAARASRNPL

[2] = target: T1, Ninjurin 2 (human (endogenous in HT-29, primary human colon cancer cells and human colon cancer tissue)); experiment: co-IP; endogenous NINJ2 precipitated with anti-NINJ2 antibody plus protein IgA/G beads from fresh human colon cancer tissue lysates (patients 1-3); bound RTKs detected by Western blotting

Q: For fibroblast growth factor receptor, which binding [1] is on record?
A: binds

Q: And the binding [2]?
A: binds

Results are given in words; binding and its absence hold for the method and conditions named. Binding seen in cells or lysates may run through a third protein. Binding can be weak; no strength is given.
